Measured values as given in the supplement of paper PMC10735217.
Counter-ions that a name gives are not always drawn. The list shows a part of the results. Single values are uncertain here, since repeats match poorly.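 In a drug-repurposing library screen, luminescence reads luciferase driven by eight TEAD-binding elements, stably integrated into human kidney-derived cells. Compounds scoring over five robust Z scores above the plate mean are called hits.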

System: HEK293A TEAD-LUC reporter
Assay: TEAD-luciferase reporter activity (YAP activation), robust Z score vs plate; higher = stronger YAP/TEAD activation
Conditions: 24 h

Compound: O=c1n(CC2CO2)c(=O)n(CC2CO2)n1CC1CO1 (centres undefined) [Anaxirone]
- TEAD-luciferase reporter activity (compound concentration: 200 nM): inactive: -1.5
- TEAD-luciferase reporter activity (compound concentration: 2 uM): inactive: 0.879
- TEAD-luciferase reporter activity (compound concentration: 10 uM): inactive: -0.208

Compound: O=C(OC[C@H]1O[C@H](O[C@H]2O[C@H](COC(=O)C3CCCCC3)[C@@H](O)[C@H](O)[C@H]2O)[C@H](O)[C@@H](O)[C@@H]1O)C1CCCCC1
- TEAD-luciferase reporter activity (compound concentration: 200 nM): inactive: -0.0694
- TEAD-luciferase reporter activity (compound concentration: 2 uM): inactive: -0.57
- TEAD-luciferase reporter activity (compound concentration: 10 uM): inactive: -0.137

Compound: O=C(NCC(O)CO)c1c(I)c(C(=O)NCC(O)CO)c(I)c(N(CCO)C(=O)CO)c1I (centres undefined) [ioversol]
- TEAD-luciferase reporter activity (compound concentration: 200 nM): inactive: 0.84
- TEAD-luciferase reporter activity (compound concentration: 2 uM): inactive: 0.534
- TEAD-luciferase reporter activity (compound concentration: 10 uM): active: 6.82

Compound: CCOc1ccc(-c2c(Cl)ncn2-c2ccc(S(N)(=O)=O)cc2)cc1
- TEAD-luciferase reporter activity (compound concentration: 200 nM): inactive: -1.08
- TEAD-luciferase reporter activity (compound concentration: 2 uM): inactive: -0.401
- TEAD-luciferase reporter activity (compound concentration: 10 uM): inactive: 0.32

Compound: COCCc1ccc(OCC(O)C(C)(C)N)cc1 (centres undefined)
- TEAD-luciferase reporter activity (compound concentration: 200 nM): inactive: -1.55
- TEAD-luciferase reporter activity (compound concentration: 2 uM): inactive: -0.949
- TEAD-luciferase reporter activity (compound concentration: 10 uM): inactive: 0.049

Compound: CCN(CC)CCOCC(O)c1ccc2sccc2c1 (centres undefined)
- TEAD-luciferase reporter activity (compound concentration: 200 nM): inactive: -0.845
- TEAD-luciferase reporter activity (compound concentration: 2 uM): inactive: -0.573
- TEAD-luciferase reporter activity (compound concentration: 10 uM): inactive: -0.348

Compound: Cc1ccc(NC(=O)[C@H]2CCCN(C(=O)c3c(C)cccc3F)[C@H]2c2ccc(NC3CCCC3)cc2)cc1C(F)(F)F
- TEAD-luciferase reporter activity (compound concentration: 200 nM): inactive: 0.293
- TEAD-luciferase reporter activity (compound concentration: 2 uM): inactive: 1.1
- TEAD-luciferase reporter activity (compound concentration: 10 uM): inactive: -0.946

Compound: N=C(N)NC(=O)c1cnccn1 [Pyrazinoylguanidine]
- TEAD-luciferase reporter activity (compound concentration: 200 nM): inactive: 0.136
- TEAD-luciferase reporter activity (compound concentration: 2 uM): inactive: -1.95
- TEAD-luciferase reporter activity (compound concentration: 10 uM): inactive: 0.841

Compound: CC1(C)Oc2ccc(C#N)cc2[C@@H](OC2=NNC(=O)C3CC23)[C@@H]1O (some centres undefined)
- TEAD-luciferase reporter activity (compound concentration: 200 nM): inactive: -0.148
- TEAD-luciferase reporter activity (compound concentration: 2 uM): inactive: 0.228
- TEAD-luciferase reporter activity (compound concentration: 10 uM): inactive: 0.445

Compound: CCOc1ncc(C)c2c1[C@@H](c1ccc(C#N)cc1OC)C(C(N)=O)=C(C)N2 [Finere]
- TEAD-luciferase reporter activity (compound concentration: 200 nM): inactive: -0.683
- TEAD-luciferase reporter activity (compound concentration: 2 uM): inactive: -0.373
- TEAD-luciferase reporter activity (compound concentration: 10 uM): inactive: -0.134

Compound: CP(=O)(O)C(C(=O)N/C=C/c1ccc(F)c(F)c1)c1csc2ccc(Cl)cc12 (centres undefined)
- TEAD-luciferase reporter activity (compound concentration: 200 nM): inactive: -2.51
- TEAD-luciferase reporter activity (compound concentration: 2 uM): inactive: 0.721
- TEAD-luciferase reporter activity (compound concentration: 10 uM): inactive: -1.31

Compound: Cc1ccc(S(=O)(=O)N2CCCC(C(=O)N3CCC(N4CCCC4=O)CC3)C2)cc1 (centres undefined)
- TEAD-luciferase reporter activity (compound concentration: 200 nM): inactive: 2.98
- TEAD-luciferase reporter activity (compound concentration: 10 uM): active: 20

Compound: CCCn1c(=O)c(CCCOC(=O)NC)nc2ccccc21 [Bamaquimast]
- TEAD-luciferase reporter activity (compound concentration: 200 nM): inactive: -1.13
- TEAD-luciferase reporter activity (compound concentration: 2 uM): inactive: -0.702
- TEAD-luciferase reporter activity (compound concentration: 10 uM): inactive: 1.19

Compound: CN(c1ccc(/C=C/C[C@H](NC(=O)c2c(Cl)cccc2Cl)C(=O)O)cc1)c1ncccn1
- TEAD-luciferase reporter activity (compound concentration: 200 nM): inactive: -0.355
- TEAD-luciferase reporter activity (compound concentration: 2 uM): inactive: -1.34
- TEAD-luciferase reporter activity (compound concentration: 10 uM): inactive: 0.446

Compound: CC(C)(C)NC(=O)N[C@H](C(=O)N1C[C@H]2[C@@H]([C@H]1C(=O)NC(CC1CCC1)C(=O)C(N)=O)C2(C)C)C(C)(C)C (some centres undefined) [Boceprevir]
- TEAD-luciferase reporter activity (compound concentration: 200 nM): inactive: -1.65
- TEAD-luciferase reporter activity (compound concentration: 2 uM): inactive: 0.709
- TEAD-luciferase reporter activity (compound concentration: 10 uM): inactive: -0.426

Compound: CN(c1ccc(/C=C/C[C@H](NC(=O)C2CCCCC2)C(=O)O)cc1)c1ncccn1
- TEAD-luciferase reporter activity (compound concentration: 200 nM): inactive: 0.276
- TEAD-luciferase reporter activity (compound concentration: 2 uM): inactive: 0.426
- TEAD-luciferase reporter activity (compound concentration: 10 uM): inactive: -0.998

Compound: CCCOc1ccc(C(=O)OCCN(CC)CC)cc1N [proparacaine HCl]
- TEAD-luciferase reporter activity (compound concentration: 2 uM): inactive: -1.08

Compound: CCCOc1ccc(C(=O)OCCN(CC)CC)cc1N [Proxymetacaine499-67-2]
- TEAD-luciferase reporter activity (compound concentration: 200 nM): active: 6.14
- TEAD-luciferase reporter activity (compound concentration: 10 uM): inactive: 0.668

Compound: CC(C)CN(C[C@@H](O)[C@H](Cc1ccccc1)NC(=O)O[C@H]1CO[C@H]2OCC[C@H]21)S(=O)(=O)c1ccc2nc(NC3CCN(C4CCCC4)CC3)sc2c1
- TEAD-luciferase reporter activity (compound concentration: 200 nM): inactive: -0.885
- TEAD-luciferase reporter activity (compound concentration: 2 uM): inactive: -0.677
- TEAD-luciferase reporter activity (compound concentration: 10 uM): inactive: -0.44

Compound: O=S(=O)(c1ccccc1)c1c(N2CCNCC2)nn2c3c(cnc12)CNCC3
- TEAD-luciferase reporter activity (compound concentration: 200 nM): inactive: -0.154
- TEAD-luciferase reporter activity (compound concentration: 2 uM): inactive: -1.48
- TEAD-luciferase reporter activity (compound concentration: 10 uM): inactive: 1.13

Compound: Cc1nc(NC/C=C\COc2cccc(CN3CCCCC3)c2)[nH]c(=O)c1C
- TEAD-luciferase reporter activity (compound concentration: 200 nM): inactive: -0.839
- TEAD-luciferase reporter activity (compound concentration: 2 uM): inactive: -1.05
- TEAD-luciferase reporter activity (compound concentration: 10 uM): inactive: 0.399

Compound: Cc1c(-c2ccccc2)[n+](/N=N/[n+]2c(-c3ccccc3)c(C)n3ccccc32)c2ccccn12 [fazadinium bromide]
- TEAD-luciferase reporter activity (compound concentration: 200 nM): inactive: -1.28
- TEAD-luciferase reporter activity (compound concentration: 2 uM): inactive: 1.16
- TEAD-luciferase reporter activity (compound concentration: 10 uM): inactive: -0.418

Compound: COc1c(N2CCC(N)C(C)(C)C2)c(F)cc2c(=O)c(C(=O)O)cn(C3CC3)c12 (centres undefined)
- TEAD-luciferase reporter activity (compound concentration: 200 nM): inactive: -1.56
- TEAD-luciferase reporter activity (compound concentration: 2 uM): inactive: -1.07
- TEAD-luciferase reporter activity (compound concentration: 10 uM): inactive: -1.01

Compound: Cc1c(C)c2c(c(C)c1O)CCC(C)(C)O2
- TEAD-luciferase reporter activity (compound concentration: 200 nM): inactive: 0.676
- TEAD-luciferase reporter activity (compound concentration: 2 uM): inactive: -1.25
- TEAD-luciferase reporter activity (compound concentration: 10 uM): inactive: -0.48

Compound: CC1=CC(=O)C2=C(C)CC[C@@H]3[C@H](OC(=O)[C@H]3C)[C@@H]12 [Oligvon]
- TEAD-luciferase reporter activity (compound concentration: 200 nM): inactive: 2.16
- TEAD-luciferase reporter activity (compound concentration: 2 uM): inactive: -1.59
- TEAD-luciferase reporter activity (compound concentration: 10 uM): inactive: 0.636

Compound: CC(=O)N[C@H](CSSC[C@H](N)C(=O)O)C(=O)N[C@H](C)C(=O)N[C@H](CCCNC(=N)N)C(=O)N[C@H](CCCNC(=N)N)C(=O)N[C@H](CCCNC(=N)N)C(=O)N[C@H](C)C(=O)N[C@H](CCCNC(=N)N)C(N)=O
- TEAD-luciferase reporter activity (compound concentration: 200 nM): inactive: 2.94
- TEAD-luciferase reporter activity (compound concentration: 2 uM): inactive: -0.531
- TEAD-luciferase reporter activity (compound concentration: 10 uM): inactive: 1.64
